Source: patent publication US20250152742A1, “COMPOSITIONS AND METHODS FOR NEUROLOGICAL DISEASES” (Trames Bio, Inc., priority 2022, published 2025)
Residue numbers refer to the chain shown, from its start. Names and notes keep the numbering of the source.

B1: CODA335: engineered receptor: L131T in SEQ ID NO: 33 (protein)
chain: MRCSPGGVWLALAASLLHVSLQGEFQRKLYKELVKNYNPLERPVANDSQPLTVYFSLSLLQIMDVDEKNQVLTTNIWLQMSWTDHYLQWNVSEYPGVKTVRFPDGQIWKPDILLYNSADERFDATFHTNVTVNSSGHCQYLPPGIFKSSCPMDLKNFPMDVQTCKLKFGSWSYGGWSLDLQMQEADISGYIPNGEWDLVGIPGKRSERFYECCKEPYPDVTFTVTMRRRMGYYLIQMYIPSLLIVILSWISFWINMDAAPARVGLGITTVLTMTTQSSGSRASLPKVSYVKAIDIWMAVCLLFVFSALLEYAAVNFVSRQHKELLRFRRKRRHHKSPMLNLFQEDEAGEGRFNFSAYGMGPACLQAKDGISVKGANNSNTTNPPPAPSKSPEEMRKLFIQRAKKIDKISRIGFPMAFLIFNMFYWIIYKIVRREDVHNQ
modifications: synthetic sequence of chimeric LGIC
B2: CODA339: engineered receptor: L131D in SEQ ID NO: 33 (protein)
chain: B1 chain with T131D
modifications: synthetic sequence of chimeric LGIC
B3: CODA806: engineered receptor: Y115D, L131Q in SEQ ID NO: 33 (Chemogenic receptor-11) (protein)
chain: B1 chain with Y115D, T131Q
modifications: synthetic sequence of chimeric LGIC
B4: CODA952: engineered receptor: Y140I in SEQ ID NO: 33 (protein)
chain: B1 chain with T131L, Y140I
modifications: synthetic sequence of chimeric LGIC
B5: CODA1048: engineered receptor: R101F, Y210F in SEQ ID NO: 33 (protein)
chain: B1 chain with R101F, T131L, Y210F
modifications: synthetic sequence of chimeric LGIC
B6: CODA377: engineered receptor: S172D in SEQ ID NO: 33 (protein)
chain: B1 chain with T131L, S172D
modifications: synthetic sequence of chimeric LGIC
B7: CODA333: engineered receptor: L131S in SEQ ID NO: 33 (protein)
chain: B1 chain with T131S
modifications: synthetic sequence of chimeric LGIC
B8: CODA534: engineered receptor: L131S, S172D in SEQ ID NO: 33 (protein)
chain: B1 chain with T131S, S172D
modifications: synthetic sequence of chimeric LGIC
B9: CODA282: engineered receptor: Y115D in SEQ ID NO: 33 (protein)
chain: B1 chain with Y115D, T131L
modifications: synthetic sequence of chimeric LGIC
B10: CODA283: engineered receptor: Y115E_N379K in SEQ ID NO: 33 (protein)
chain: B1 chain with Y115E, T131L, N379K
modifications: synthetic sequence of chimeric LGIC
B11: CODA1045: engineered receptor: R101W, Y210V in SEQ ID NO: 33 (protein)
chain: B1 chain with R101W, T131L, Y210V
modifications: synthetic sequence of chimeric LGIC
B12: CODA1054: engineered receptor: R101M, L131F in SEQ ID NO: 33 (protein)
chain: B1 chain with R101M, T131F
modifications: synthetic sequence of chimeric LGIC
B13: CODA807: engineered receptor: Y115D, L131E in SEQ ID NO: 33 (protein)
chain: B1 chain with Y115D, T131E
modifications: synthetic sequence of chimeric LGIC
B14: CODA1053: engineered receptor: R101M, L131A in SEQ ID NO: 33 (protein)
chain: B1 chain with R101M, T131A
modifications: synthetic sequence of chimeric LGIC
B15: CODA535: engineered receptor: L131T, S172D in SEQ ID NO: 33 (protein)
chain: B1 chain with S172D
modifications: synthetic sequence of chimeric LGIC
B16: CODA805: engineered receptor: Y115D, S170T in SEQ ID NO: 33 (protein)
chain: B1 chain with Y115D, T131L, S170T
modifications: synthetic sequence of chimeric LGIC
B17: CODA536: engineered receptor: L131D, S172D in SEQ ID NO: 33 (protein)
chain: B1 chain with T131D, S172D
modifications: synthetic sequence of chimeric LGIC
B18: CODA1027: engineered receptor: R101F, L131D in SEQ ID NO: 33 (protein)
chain: B1 chain with R101F, T131D
modifications: synthetic sequence of chimeric LGIC
B19: CODA1025: engineered receptor: R101F, L131G in SEQ ID NO: 33 (protein)
chain: B1 chain with R101F, T131G
modifications: synthetic sequence of chimeric LGIC
B20: CODA409: engineered receptor: Y210W in SEQ ID NO: 33 (protein)
chain: B1 chain with T131L, Y210W
modifications: synthetic sequence of chimeric LGIC
B21: CODA1047: engineered receptor: R101F, Y210V in SEQ ID NO: 33 (protein)
chain: B1 chain with R101F, T131L, Y210V
modifications: synthetic sequence of chimeric LGIC
B22: CODA342: engineered receptor: L131R in SEQ ID NO: 33 (protein)
chain: B1 chain with T131R
modifications: synthetic sequence of chimeric LGIC

These molecules were tested on HEK293T cells. Conditions: % HA-tag positive cells normalized to SEQ ID NO: 33 control, flow cytometry.
Assay type: cell-based
In the case of B1, the “Normalized HA %” value is reported as 2.00.
In the case of B2, the “Normalized HA %” value is reported as 1.59.
With B3 the “Normalized HA %” value was 0.36.
In the case of B4, the “Normalized HA %” value is reported as 1.41.
B5 was tested, and the “Normalized HA %” value was 1.05.
For B6, the “Normalized HA %” value was 0.36.
With B7 the “Normalized HA %” value was 1.42.
B8 was tested, and the “Normalized HA %” value was 0.47.
With B9 the “Normalized HA %” value was 0.91.
B10 was tested, and the “Normalized HA %” value was 1.16.
In the case of B11, the “Normalized HA %” value is reported as 1.09.
B12 was tested, and the “Normalized HA %” value was 0.96.
With B13 the “Normalized HA %” value was 0.91.
In the case of B14, the “Normalized HA %” value is reported as 1.31.
For B15, the “Normalized HA %” value was 0.33.
With B16 the “Normalized HA %” value was 0.70.
For B17, the “Normalized HA %” value was 0.40.
For B18, the “Normalized HA %” value was 0.61.
B19 was tested, and the “Normalized HA %” value was 0.98.
B20 was tested, and the “Normalized HA %” value was 0.96.
For B21, the “Normalized HA %” value was 1.13.
In the case of B22, the “Normalized HA %” value is reported as 1.83.

Same assay, conditions: anti-HA fluorescence intensity normalized to SEQ ID NO: 33 control, flow cytometry
B1 was tested, and the “Normalized HA MFI” value was 0.88.
For B2, the “Normalized HA MFI” value was 0.79.
In the case of B3, the “Normalized HA MFI” value is reported as 0.83.
With B4 the “Normalized HA MFI” value was 1.53.
B5 was tested, and the “Normalized HA MFI” value was 0.61.
In the case of B6, the “Normalized HA MFI” value is reported as 0.61.
In the case of B7, the “Normalized HA MFI” value is reported as 0.76.
B8 was tested, and the “Normalized HA MFI” value was 1.10.
With B9 the “Normalized HA MFI” value was 0.74.
In the case of B10, the “Normalized HA MFI” value is reported as 1.00.
With B11 the “Normalized HA MFI” value was 0.87.
For B12, the “Normalized HA MFI” value was 0.88.
In the case of B13, the “Normalized HA MFI” value is reported as 1.00.
With B14 the “Normalized HA MFI” value was 0.97.
For B15, the “Normalized HA MFI” value was 0.86.
For B16, the “Normalized HA MFI” value was 0.94.
B17 was tested, and the “Normalized HA MFI” value was 0.87.
In the case of B18, the “Normalized HA MFI” value is reported as 0.49.
In the case of B19, the “Normalized HA MFI” value is reported as 0.63.
For B20, the “Normalized HA MFI” value was 1.09.
With B21 the “Normalized HA MFI” value was 0.65.
With B22 the “Normalized HA MFI” value was 0.74.
